The values that follow come from patent publication US20240059757A1.

Results are given in words; binding and its absence hold for the method and conditions named.

The target of the experiment is SARS-CoV RBD (Sino Biological) (SARS-CoV) (UniProt P59594). The experiment in a line: ELISA, plate coated with SARS-CoV RBD at 1 µg/ml, OD 405 nm.

B1: S2R7 (antibody, V domains shown)
VH: QVQLQESGPGLVRPSETLSLTCTVSSASIPTGTHYWGWIRQPPGQGLEWIGSISNIGYSFYNPSLKSRVSISIDTSKKQFSLKVRSVTAADTAVYYCVRPTNEYGGFWFDRWGQGTLVTVSS
VL: SYVLTQPPSVSVAPGKTARFTCGGDNIGSKRVHWYQQKPGQAPVLVIYYDADRPSGIPERFSGSKSGSTATLTISRVEAGDEADYYCQVWESTRDHVIFGGGTKLTVL
Take B1: the binding result is “no binding (tested: about 6 µg/ml)”.
